# Data published in PMC10221034 (2023).
# Results are given in words; binding and its absence hold for the method and conditions named. A result given as binding can be weak or reduced; the word gives no strength.
# How the values were obtained:
# [1] = biological target: T1, wild-type rTpiA (recombinant Streptococcus pneumoniae D39 triosephosphate isomerase) (Streptococcus pneumoniae D39) (UniProt Q04JH4); assay: far-Western, overlay or dot blot; rTpiA (200 ng) separated by SDS-PAGE and transferred onto PVDF; membrane blocked with 5% BSA in TBST, incubated 90 min with 30 µg/mL plasminogen at 25 °C; bound plasminogen probed with rabbit polyclonal anti-plasminogen and HRP secondary antibody; both purified
# T1 sequence: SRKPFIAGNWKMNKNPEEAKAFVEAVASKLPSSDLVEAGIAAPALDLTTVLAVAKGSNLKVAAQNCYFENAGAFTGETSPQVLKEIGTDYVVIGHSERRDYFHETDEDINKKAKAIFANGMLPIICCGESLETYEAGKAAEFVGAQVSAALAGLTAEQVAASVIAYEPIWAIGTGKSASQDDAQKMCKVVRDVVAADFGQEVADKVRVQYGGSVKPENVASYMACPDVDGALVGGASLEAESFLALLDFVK
# [2] = biological target: T1, wild-type rTpiA (recombinant Streptococcus pneumoniae D39 triosephosphate isomerase) (Streptococcus pneumoniae D39); assay: ELISA; rTpiA coated at 1 µg/well overnight at 4 °C; blocked with 1% skim milk in PBST; 1 µg/well human plasminogen, 37 °C, 1 h; detected with anti-plasminogen antibody and AP-linked secondary antibody, A405; both purified
substance,measurement,setting,value
human plasma plasminogen,binding,[1],binds
same,binding,[2],binds
